Results deposited as PubChem BioAssay AID1259254 (NCATS, 2017).
Assay: 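Finding genes that stop cells copying their DNA twice in one cycle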 (primary screen). Cells: human HCT116 colorectal cancer cells. Knock-down reagent: single siRNA against human genes. Time to read-out: 3 days. Measurement: 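Imaged Hoechst DNA stain sorts each cell into a cycle phase by DNA amount; per plate, G2 fraction set to 0% for non-targeting and 100% for GMNN siRNA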. Scale: G2 robust z-score: higher = more G2 cells, more excess DNA replication. Call rule: 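An siRNA counts as active if its G2 robust z-score lies at least 5 MADs above the screen median; here such calls match roughly 38% of GMNN control or more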.
The whole screen tested about 59,000 reagents; below is a random part of them. Over the whole deposit, about 1,550 (2.6%) are marked active. 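G2 share is only a proxy for re-replication; each gene was hit by three separate siRNAs, and active genes were retested.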 A number with no mark means an inactive call. Not all columns of the deposit are shown. Not stated in the record: the amount of reagent.

With knock-down of DAAM2 [SID160736401] the results were G2 robust z-score -1.36.
Against DAAM2 [SID160736402], the entry reads G2 robust z-score -0.359.
After knock-down of DAAM2 [SID160736403], the record shows G2 robust z-score 0.274.
With knock-down of IL33 [SID160753838], the record shows G2 robust z-score 0.000886.
IL33 [SID160753839] gave G2 robust z-score -0.412.
Against IL33 [SID160753840] the deposit lists G2 robust z-score 0.754.
With knock-down of RPL35P1 [SID160725402] the results were G2 robust z-score 1.4.
Silencing of RPL35P1 [SID160725403] resulted in: G2 robust z-score 2.51.
With knock-down of RPL35P1 [SID160767856], the record shows G2 robust z-score -0.64.
After knock-down of SPINK8 [SID160769857], the screen gave G2 robust z-score -0.288.
For SPINK8 [SID160769858], the entry reads G2 robust z-score -0.0429.
SPINK8 [SID160769859] gave G2 robust z-score 0.295.
RPS4XP16 [SID160761534] scored G2 robust z-score 3.49.
RPS4XP16 [SID160761535] showed G2 robust z-score 0.995.
Against RPS4XP16 [SID160761536] the deposit lists G2 robust z-score 1.03.
Against PCDHB1 [SID160739325] the deposit lists G2 robust z-score 1.41.
PCDHB1 [SID160739326] gave G2 robust z-score 0.0094.
Against PCDHB1 [SID160739327] the deposit lists G2 robust z-score -0.535.

2 entries already listed, ordered by “G2 robust z-score”, descending:
PCDHB1 [SID160739326] — G2 robust z-score: 0.0094
PCDHB1 [SID160739327] — G2 robust z-score: -0.535

The listing continues:
With knock-down of PTGR1 [SID160734052], the screen gave G2 robust z-score 1.62.
For PTGR1 [SID160734063], the entry reads G2 robust z-score -0.321.
PTGR1 [SID160734072] gave G2 robust z-score 0.895.
HDX [SID160757686] showed G2 robust z-score 0.47.
With knock-down of HDX [SID160757687], the screen gave G2 robust z-score 1.82.
Depletion of HDX [SID160757688] gave: G2 robust z-score -0.678.
ANP32D [SID160736452] scored G2 robust z-score 0.025.
Against ANP32D [SID160736453] the deposit lists G2 robust z-score 3.88.
ANP32D [SID160736455] gave G2 robust z-score -0.582.
With knock-down of OCA2 [SID160778336], the screen gave G2 robust z-score 0.168.
OCA2 [SID160778338] gave G2 robust z-score -0.294.
Against OCA2 [SID160778339] the deposit lists G2 robust z-score -0.319.
